The test concerns the target T1, GFP-tagged SUSD4 (mouse) (UniProt Q8BH32).
T1 sequence: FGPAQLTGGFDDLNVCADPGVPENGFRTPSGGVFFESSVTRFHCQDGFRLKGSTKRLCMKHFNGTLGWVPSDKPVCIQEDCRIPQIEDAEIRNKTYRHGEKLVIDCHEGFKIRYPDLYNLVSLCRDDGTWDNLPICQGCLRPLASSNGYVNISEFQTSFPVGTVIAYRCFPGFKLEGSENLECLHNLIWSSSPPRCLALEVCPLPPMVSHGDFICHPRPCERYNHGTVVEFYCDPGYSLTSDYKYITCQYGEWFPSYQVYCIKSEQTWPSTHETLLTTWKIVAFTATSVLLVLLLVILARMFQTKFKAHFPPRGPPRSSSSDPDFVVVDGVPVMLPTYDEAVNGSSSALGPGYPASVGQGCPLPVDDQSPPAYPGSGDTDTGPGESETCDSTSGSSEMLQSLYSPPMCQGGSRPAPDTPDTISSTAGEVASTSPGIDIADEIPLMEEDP
The experiment in a line: affinity purification with mass spectrometry; GFP-SUSD4 from transfected HEK293H lysate held on GFP-Trap beads and washed, incubated 3 hr at 4°C with lysate of cerebellar synaptosomes of P30 WT mice (10 mM Tris-HCl pH 7.5, 10 mM EDTA, 150 mM NaCl, 1% Triton X100); washes with lysis buffer plus 0.1% SDS; SDS-PAGE and LC-MS/MS; GFP as control bait; only the target purified.

Chains of the proteins cited; added tags and fusions are not shown. Residues count along the entry.
UniProt Q8CFI0: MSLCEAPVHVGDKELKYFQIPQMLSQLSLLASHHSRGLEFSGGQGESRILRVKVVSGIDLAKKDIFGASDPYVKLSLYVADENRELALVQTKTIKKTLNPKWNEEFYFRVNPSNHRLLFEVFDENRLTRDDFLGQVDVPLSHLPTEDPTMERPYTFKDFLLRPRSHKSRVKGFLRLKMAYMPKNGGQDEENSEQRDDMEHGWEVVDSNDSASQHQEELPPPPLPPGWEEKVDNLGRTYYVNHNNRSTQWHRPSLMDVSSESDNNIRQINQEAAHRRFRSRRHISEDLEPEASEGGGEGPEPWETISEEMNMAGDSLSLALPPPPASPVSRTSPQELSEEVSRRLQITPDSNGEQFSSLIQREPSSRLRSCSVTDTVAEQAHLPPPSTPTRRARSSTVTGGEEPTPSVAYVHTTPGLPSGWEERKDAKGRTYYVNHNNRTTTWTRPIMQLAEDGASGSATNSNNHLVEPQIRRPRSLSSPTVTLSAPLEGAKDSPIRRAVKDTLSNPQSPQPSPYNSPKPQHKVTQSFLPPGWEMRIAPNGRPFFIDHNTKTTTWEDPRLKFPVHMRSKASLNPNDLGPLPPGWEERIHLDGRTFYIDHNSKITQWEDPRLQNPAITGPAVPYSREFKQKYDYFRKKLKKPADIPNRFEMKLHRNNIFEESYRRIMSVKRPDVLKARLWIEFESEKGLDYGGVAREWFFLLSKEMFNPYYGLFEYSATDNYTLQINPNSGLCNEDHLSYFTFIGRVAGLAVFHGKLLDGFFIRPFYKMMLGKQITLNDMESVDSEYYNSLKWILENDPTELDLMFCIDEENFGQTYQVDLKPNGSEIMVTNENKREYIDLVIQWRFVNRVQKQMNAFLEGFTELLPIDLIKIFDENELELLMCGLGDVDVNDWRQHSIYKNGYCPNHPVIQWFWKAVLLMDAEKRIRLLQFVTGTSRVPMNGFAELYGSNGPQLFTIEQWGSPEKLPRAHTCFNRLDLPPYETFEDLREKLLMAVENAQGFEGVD
UniProt Q9DBH0: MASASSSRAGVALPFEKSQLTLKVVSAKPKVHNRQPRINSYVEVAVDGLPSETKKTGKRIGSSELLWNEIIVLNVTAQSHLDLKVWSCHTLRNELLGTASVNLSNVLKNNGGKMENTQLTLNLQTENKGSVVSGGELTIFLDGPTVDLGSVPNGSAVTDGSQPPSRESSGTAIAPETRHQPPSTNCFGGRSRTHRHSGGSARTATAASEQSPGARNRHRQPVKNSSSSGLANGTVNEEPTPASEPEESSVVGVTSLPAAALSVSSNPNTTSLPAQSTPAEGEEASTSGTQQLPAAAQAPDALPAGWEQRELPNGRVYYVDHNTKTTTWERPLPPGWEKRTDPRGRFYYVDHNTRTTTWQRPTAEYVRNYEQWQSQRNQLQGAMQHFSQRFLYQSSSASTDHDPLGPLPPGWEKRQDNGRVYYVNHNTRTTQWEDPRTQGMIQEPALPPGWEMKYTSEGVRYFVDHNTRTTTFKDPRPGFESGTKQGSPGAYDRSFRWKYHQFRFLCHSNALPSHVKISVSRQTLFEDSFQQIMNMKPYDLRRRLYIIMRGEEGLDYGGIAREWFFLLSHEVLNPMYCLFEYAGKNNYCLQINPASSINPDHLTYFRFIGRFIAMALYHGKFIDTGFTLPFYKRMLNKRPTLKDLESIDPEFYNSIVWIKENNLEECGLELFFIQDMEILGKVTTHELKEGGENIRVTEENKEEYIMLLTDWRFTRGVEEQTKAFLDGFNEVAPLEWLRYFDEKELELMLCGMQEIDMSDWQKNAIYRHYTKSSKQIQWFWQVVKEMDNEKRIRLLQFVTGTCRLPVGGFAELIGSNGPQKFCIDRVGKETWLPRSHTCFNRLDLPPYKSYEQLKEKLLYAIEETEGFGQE
UniProt P47708: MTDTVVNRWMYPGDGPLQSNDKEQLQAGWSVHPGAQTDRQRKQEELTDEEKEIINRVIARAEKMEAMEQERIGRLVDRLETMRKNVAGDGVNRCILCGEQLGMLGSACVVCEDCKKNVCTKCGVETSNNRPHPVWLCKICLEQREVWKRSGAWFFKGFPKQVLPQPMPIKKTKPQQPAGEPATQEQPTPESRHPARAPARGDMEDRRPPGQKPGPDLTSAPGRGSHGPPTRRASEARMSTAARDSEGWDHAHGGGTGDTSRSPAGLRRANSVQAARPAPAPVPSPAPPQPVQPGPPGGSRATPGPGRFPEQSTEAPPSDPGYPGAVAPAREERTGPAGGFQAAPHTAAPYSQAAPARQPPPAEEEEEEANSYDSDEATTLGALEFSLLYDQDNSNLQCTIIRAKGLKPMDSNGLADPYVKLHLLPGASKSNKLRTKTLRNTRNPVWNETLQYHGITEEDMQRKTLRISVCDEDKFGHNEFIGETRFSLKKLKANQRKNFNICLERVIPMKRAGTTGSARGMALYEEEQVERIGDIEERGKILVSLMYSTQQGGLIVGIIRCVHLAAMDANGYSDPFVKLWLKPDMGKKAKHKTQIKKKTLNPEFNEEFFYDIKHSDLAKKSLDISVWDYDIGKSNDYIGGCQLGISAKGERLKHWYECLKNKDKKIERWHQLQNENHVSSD
UniProt P46935: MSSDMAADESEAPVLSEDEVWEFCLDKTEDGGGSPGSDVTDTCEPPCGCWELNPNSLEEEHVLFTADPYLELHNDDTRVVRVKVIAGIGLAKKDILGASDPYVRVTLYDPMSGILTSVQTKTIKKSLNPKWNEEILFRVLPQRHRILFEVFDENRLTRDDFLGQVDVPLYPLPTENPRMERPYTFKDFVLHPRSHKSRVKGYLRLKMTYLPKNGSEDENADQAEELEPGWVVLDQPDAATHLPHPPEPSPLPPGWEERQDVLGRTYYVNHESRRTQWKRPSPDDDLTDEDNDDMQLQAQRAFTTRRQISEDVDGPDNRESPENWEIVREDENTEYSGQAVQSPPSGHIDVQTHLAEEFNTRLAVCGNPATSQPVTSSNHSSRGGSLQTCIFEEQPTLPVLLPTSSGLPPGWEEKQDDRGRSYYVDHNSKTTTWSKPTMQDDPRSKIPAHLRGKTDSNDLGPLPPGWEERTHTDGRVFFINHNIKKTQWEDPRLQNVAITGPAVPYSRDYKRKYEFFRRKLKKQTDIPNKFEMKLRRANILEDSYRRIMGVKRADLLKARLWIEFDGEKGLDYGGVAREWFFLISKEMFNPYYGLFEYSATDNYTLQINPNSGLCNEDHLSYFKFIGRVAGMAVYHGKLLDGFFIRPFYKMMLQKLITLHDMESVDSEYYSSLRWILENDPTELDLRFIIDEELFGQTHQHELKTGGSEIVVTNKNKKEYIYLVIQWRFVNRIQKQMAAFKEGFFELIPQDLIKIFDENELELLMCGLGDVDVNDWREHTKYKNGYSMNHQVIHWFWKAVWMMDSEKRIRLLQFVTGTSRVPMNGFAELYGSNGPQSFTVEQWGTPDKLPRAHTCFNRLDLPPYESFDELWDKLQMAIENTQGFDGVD
UniProt P27773, residues 25-505: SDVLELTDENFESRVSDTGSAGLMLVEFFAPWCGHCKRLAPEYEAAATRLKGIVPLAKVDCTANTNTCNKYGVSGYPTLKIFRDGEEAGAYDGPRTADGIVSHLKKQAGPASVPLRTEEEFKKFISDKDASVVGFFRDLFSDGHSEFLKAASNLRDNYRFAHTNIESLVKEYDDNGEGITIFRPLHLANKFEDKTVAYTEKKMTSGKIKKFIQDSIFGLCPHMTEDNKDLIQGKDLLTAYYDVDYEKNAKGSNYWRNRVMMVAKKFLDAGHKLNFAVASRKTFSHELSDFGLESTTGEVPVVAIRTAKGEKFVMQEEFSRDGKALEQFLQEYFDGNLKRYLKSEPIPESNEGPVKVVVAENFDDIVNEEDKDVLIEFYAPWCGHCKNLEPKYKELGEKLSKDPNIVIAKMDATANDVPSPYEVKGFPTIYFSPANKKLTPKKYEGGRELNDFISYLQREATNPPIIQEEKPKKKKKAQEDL
UniProt P27546: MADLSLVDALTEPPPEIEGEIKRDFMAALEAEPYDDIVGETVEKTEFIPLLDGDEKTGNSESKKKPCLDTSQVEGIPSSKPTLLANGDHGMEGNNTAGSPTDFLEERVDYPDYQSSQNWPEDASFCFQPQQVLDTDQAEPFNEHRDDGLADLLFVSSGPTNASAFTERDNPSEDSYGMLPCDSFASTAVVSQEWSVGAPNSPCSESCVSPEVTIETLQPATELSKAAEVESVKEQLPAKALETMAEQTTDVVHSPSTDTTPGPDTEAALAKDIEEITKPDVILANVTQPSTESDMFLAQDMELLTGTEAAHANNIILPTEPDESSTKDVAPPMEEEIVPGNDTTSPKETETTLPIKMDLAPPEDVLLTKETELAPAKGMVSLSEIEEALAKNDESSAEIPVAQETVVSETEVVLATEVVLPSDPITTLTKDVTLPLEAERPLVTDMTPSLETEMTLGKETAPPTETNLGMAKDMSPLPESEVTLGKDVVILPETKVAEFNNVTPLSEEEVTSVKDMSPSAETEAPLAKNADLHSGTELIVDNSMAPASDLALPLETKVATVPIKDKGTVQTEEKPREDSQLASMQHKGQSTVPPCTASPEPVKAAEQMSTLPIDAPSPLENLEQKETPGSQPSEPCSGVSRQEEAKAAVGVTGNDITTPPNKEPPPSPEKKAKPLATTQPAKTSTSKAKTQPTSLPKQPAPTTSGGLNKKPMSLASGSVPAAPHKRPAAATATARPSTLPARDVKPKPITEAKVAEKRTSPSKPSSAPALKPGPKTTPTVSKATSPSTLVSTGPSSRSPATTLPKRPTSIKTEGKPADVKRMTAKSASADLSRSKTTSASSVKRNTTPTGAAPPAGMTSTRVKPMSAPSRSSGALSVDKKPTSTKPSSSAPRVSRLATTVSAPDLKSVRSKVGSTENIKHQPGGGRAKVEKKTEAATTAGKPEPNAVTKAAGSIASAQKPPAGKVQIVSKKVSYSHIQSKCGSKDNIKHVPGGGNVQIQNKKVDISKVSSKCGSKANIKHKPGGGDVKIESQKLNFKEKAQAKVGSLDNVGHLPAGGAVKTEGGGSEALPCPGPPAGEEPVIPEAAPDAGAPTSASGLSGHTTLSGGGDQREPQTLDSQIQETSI
UniProt Q505F5: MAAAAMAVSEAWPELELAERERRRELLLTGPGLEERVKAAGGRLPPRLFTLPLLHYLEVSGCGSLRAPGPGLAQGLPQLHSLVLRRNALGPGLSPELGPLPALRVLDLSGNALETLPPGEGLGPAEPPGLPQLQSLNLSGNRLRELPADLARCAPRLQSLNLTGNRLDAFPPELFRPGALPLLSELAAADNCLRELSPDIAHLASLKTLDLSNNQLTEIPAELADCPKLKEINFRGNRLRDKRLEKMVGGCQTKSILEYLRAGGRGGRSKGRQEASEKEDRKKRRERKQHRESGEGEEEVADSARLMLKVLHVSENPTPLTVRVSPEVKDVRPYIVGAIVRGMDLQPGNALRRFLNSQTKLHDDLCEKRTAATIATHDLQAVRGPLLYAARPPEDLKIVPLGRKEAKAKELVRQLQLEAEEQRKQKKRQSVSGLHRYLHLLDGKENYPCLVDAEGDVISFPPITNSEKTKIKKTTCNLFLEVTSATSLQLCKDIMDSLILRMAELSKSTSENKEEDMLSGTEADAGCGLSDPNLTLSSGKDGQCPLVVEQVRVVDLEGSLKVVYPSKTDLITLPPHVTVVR
UniProt Q8C863: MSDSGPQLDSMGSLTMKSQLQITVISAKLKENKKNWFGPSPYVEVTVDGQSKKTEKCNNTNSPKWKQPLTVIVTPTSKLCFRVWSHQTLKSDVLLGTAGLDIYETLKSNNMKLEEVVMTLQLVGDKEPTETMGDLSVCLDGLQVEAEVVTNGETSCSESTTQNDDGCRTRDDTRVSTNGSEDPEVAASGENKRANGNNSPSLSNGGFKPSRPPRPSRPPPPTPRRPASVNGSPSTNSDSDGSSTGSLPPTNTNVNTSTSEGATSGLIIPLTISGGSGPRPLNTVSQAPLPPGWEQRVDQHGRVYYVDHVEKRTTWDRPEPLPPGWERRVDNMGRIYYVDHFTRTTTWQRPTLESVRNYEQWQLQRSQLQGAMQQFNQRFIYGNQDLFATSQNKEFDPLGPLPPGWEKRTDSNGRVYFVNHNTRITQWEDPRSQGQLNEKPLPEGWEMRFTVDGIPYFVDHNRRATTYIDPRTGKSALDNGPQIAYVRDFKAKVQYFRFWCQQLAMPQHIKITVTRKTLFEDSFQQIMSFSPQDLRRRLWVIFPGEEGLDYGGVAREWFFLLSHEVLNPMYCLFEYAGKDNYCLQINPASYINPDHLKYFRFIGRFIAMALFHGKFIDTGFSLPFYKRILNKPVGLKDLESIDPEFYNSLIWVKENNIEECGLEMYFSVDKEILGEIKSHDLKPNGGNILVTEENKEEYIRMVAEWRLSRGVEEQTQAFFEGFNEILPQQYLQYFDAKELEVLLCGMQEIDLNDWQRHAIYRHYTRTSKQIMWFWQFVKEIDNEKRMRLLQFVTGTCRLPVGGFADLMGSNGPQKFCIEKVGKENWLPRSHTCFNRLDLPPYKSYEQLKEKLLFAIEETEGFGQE

Results are given in words; binding and its absence hold for the method and conditions named. In cells and extracts the contact can be indirect. Here binding means that the protein was enriched with, or labelled near, the bait; the list need not be complete. Tags and fused reporters may be left off the sequences shown.

Consider “E3 ubiquitin-protein ligase NEDD4-like (from UniProt Q8CFI0 1-1004) (enzyme)”, for which the binding entry is “binds”.
As for “NEDD4-like E3 ubiquitin-protein ligase WWP1 (from UniProt Q8BZZ3 1-918) (enzyme)”, the binding result is reported as “binds”.
For the molecule “NEDD4-like E3 ubiquitin-protein ligase WWP2 (from UniProt Q9DBH0 1-870) (enzyme)”, the binding result is “binds”.
Next, “Rabphilin-3A (from UniProt P47708 1-681)”: “binds”; “E3 ubiquitin-protein ligase NEDD4 (from UniProt P46935 1-887) (enzyme)”: “binds”; “DnaJ homolog subfamily A member 1 (from UniProt P63037 1-397)”: “binds”.
Next, “Casein kinase II subunit alpha (from UniProt Q60737 1-391) (enzyme)”: “binds”; “Band 4.1-like protein 1 (from UniProt Q9Z2H5 1-879)”: “binds”; “Protein disulfide-isomerase A3 (from UniProt P27773 25-505)”: “binds”.
In the case of “DnaJ homolog subfamily B member 11 (from UniProt Q99KV1 23-358)”, the binding result is recorded as “binds”.
Next, “AP-2 complex subunit alpha-2 (from UniProt P17427 1-938)”: “binds”.
For “Microtubule-associated protein 4 (from UniProt P27546 1-1125)” the value was “binds”.
For “Leucine-rich repeat-containing protein 47 (from UniProt Q505F5 1-581)”, the binding result is “binds”.
Turning to “E3 ubiquitin-protein ligase Itchy (from UniProt Q8C863 1-864) (enzyme)”, the binding result is “binds”.
Turning to Septin-11, the binding entry is on record as “binds”.

B1: Septin-5 (protein, UniProt Q9Z2Q6 1-369)
chain: MSTGLRYKSKLATPEDKQDIDKQYVGFATLPNQVHRKSVKKGFDFTLMVAGESGLGKSTLVHSLFLTDLYKDRKLLSAEERINQTVEILKHTVDIEEKGVKLKLTIVDTPGFGDAVNNSECWKPITDYVDQQFEQYFRDESGLNRKNIQDNRVHCCLYFISPFGHGLRPVDVGFMKALHEKVNIVPLIAKADCLVPSEIRKLKDRIREEIDKFGIHVYQFPECDSDEDEDFKQQDRELKESAPFAVIGSNTVVEAKGQRVRGRLYPWGIVEVENQAHCDFVKLRNMLIRTHMHDLKDVTCDVHYENYRAHCIQQMTSKLTQDSRMESPIPILPLPTPDAETEKLIRMKDEELRRMQEMLQKMKQQMQDQ
Take B1: the binding result is “binds”.

B2: Protein disulfide-isomerase A6 (protein, UniProt Q922R8 20-440)
chain: LYSSSDDVIELTPSNFNREVIQSDGLWLVEFYAPWCGHCQRLTPEWKKAATALKDVVKVGAVNADKHQSLGGQYGVQGFPTIKIFGANKNKPEDYQGGRTGEAIVDAALSALRQLVKDRLGGRSGGYSSGKQGRGDSSSKKDVVELTDDTFDKNVLDSEDVWMVEFYAPWCGHCKNLEPEWAAAATEVKEQTKGKVKLAAVDATVNQVLASRYGIKGFPTIKIFQKGESPVDYDGGRTRSDIVSRALDLFSDNAPPPELLEIINEDIAKKTCEEHQLCVVAVLPHILDTGAAGRNSYLEVLLKLADKYKKKMWGWLWTEAGAQYELENALGIGGFGYPAMAAINARKMKFALLKGSFSEQGINEFLRELSFGRGSTAPVGGGSFPTITPREPWDGKDGELPVEDDIDLSDVELDDLEKDEL
For B2, the binding result is recorded as “binds”.

B3: Estradiol 17-beta-dehydrogenase 8 (protein, UniProt P50171 1-259)
chain: MASQLRLRSALALVTGAGSGIGRAISVRLAAEGAAVAACDLDGAAAQDTVRLLGSPGSEDGAPRGKHAAFQADVSQGPAARRLLEEVQACFSRPPSVVVSCAGITRDEFLLHMSEEDWDRVIAVNLKGTFLVTQAAAQALVSSGGRGSIINISSIIGKVGNIGQTNYASSKAGVIGLTQTAARELGRHGIRCNSVLPGFIATPMTQKMPEKVKDKVTAMIPLGHMGDPEDVADVVAFLASEDSGYITGASVEVSGGLFM
For B3, the binding result was “binds”.

B4: Deoxyhypusine synthase (protein, UniProt Q3TXU5 1-369)
chain: MEGTPPGAAPSSALAAVLKHSSALPPESAQVQGYDFNRGVDYHALLDAYRTTGFQATNFGRAVQQVNAMIEKKLEPLAVDEDHHADLTQSRRPLTGCTIFLGYTSNLISSGIRETIRYLVQHNMVDVLVTTAGGVEEDLIKCLAPTYLGEFSLRGKELRESGINRIGNLLVPNDNYCKFEDWLMPILDQMVLEQNTEGVKWTPSKMISRLGKEINNPDSVYYWAHKNHIPVLSPALTDGSLGDMIFFHSYKNPGLVLDIVEDLRLINTQAIFAKRSGMIILGGGVVKHHIANANLMRNGADYAVYINTAQEFDGSDSGARPDEAVSWGKIRMDAQPVKVYADASLVFPLLVAETFAQKADAFRAEKNED
Consider B4, for which the binding result was “binds”.

B5: Long-chain fatty acid – CoA ligase 6 (protein, UniProt Q91WC3 1-697)
chain: MQTQEILRILRLPELSDLGQFFRSLSATTLVSVGALAAVLAYWLTHRPKALQPPCNLLKQSEEVEDGGGARRSVIGGCTQLLTHYYDDARTMYQVFRRGLSISGNGPCLGFRKPEQPYQWLSYQEVAKRAEFLGSGLLQHDCKVGTEQFVGVFAQNRPEWIIAELACYTYSMVVVPLYDTLGPGSISYIINTADICTVIVDKPHKATLLLEHVERKETPGLKLVILMEPFEDALRERGKKCGVDIKSMQAIEDCGRENHHAPVPPRPDDLSIVCFTSGTTGNPKGAMLTHGNVVADFSGFLKVTEKVIFPRQDDVLISFLPLAHMFERVIQSVVYCHGGRVGFFQGDIRLLSDDMKALRPTIFPVVPRLLNRMYDKIFHQADTSLKRWLLEFAAKRKQAEVRSGIIRNNSIWDELFFNKIQASLGGHVRMIVTGAAPASPTVLGFLRAALGCQVYEGYGQTECTAGCTFTTPGDWTSGHVGAPLPCNHIKLVDAEELNYWTCKGEGEICVKGPNVFKGYLKDEDRTKEALDSDGWLHTGDIGKWLPEGTLKIIDRKKHIFKLAQGEYVAPEKIENIYIRSEPVAQIYVHGDSLKAFLVGIVVPDPEVMPSWAQKKGIEGTYQELCMKKELKKAILDDMVMLGKESGLHSFEQVKAIYIHCDMFSVQNGLLTPTLKAKRPELREYFKKQIEELYLVSV
In the case of B5, the binding result was “binds”.

For the origin of these results see article PMC7972451.
